{
  "sequences": {"note": "The chains behind the UniProt entries cited, without tags or fusion partners. Where a name states a change or a piece, a line headed by the entry shows the natural chain unless it says otherwise.", "UniProt P06756": "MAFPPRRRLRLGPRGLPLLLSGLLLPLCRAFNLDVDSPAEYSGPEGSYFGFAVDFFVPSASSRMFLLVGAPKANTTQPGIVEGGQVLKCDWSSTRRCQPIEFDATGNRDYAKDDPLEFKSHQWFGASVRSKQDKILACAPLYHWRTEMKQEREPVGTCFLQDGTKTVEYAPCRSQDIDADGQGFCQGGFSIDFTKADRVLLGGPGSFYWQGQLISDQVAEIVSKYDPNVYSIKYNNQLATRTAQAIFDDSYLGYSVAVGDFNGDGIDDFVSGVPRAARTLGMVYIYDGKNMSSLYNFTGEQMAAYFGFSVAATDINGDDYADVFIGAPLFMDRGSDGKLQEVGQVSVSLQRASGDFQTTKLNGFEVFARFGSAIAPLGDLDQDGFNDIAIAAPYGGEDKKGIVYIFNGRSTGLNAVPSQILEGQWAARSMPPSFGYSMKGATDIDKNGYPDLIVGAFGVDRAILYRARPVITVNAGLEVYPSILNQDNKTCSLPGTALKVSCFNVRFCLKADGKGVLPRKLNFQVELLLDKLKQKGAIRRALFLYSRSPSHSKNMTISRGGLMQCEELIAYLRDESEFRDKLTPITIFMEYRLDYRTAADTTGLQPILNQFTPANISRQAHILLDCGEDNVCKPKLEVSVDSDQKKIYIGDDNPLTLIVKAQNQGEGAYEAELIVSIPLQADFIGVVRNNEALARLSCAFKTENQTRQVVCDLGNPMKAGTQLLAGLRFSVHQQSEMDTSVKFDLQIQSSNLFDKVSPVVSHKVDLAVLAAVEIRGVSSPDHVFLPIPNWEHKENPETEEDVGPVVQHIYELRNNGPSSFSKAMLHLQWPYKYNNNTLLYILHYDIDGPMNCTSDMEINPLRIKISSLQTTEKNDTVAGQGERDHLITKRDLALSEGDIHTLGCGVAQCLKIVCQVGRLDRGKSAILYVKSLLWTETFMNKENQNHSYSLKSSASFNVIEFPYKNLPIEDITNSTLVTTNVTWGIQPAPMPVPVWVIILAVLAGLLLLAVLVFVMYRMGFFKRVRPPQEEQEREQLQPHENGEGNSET", "UniProt P18564": "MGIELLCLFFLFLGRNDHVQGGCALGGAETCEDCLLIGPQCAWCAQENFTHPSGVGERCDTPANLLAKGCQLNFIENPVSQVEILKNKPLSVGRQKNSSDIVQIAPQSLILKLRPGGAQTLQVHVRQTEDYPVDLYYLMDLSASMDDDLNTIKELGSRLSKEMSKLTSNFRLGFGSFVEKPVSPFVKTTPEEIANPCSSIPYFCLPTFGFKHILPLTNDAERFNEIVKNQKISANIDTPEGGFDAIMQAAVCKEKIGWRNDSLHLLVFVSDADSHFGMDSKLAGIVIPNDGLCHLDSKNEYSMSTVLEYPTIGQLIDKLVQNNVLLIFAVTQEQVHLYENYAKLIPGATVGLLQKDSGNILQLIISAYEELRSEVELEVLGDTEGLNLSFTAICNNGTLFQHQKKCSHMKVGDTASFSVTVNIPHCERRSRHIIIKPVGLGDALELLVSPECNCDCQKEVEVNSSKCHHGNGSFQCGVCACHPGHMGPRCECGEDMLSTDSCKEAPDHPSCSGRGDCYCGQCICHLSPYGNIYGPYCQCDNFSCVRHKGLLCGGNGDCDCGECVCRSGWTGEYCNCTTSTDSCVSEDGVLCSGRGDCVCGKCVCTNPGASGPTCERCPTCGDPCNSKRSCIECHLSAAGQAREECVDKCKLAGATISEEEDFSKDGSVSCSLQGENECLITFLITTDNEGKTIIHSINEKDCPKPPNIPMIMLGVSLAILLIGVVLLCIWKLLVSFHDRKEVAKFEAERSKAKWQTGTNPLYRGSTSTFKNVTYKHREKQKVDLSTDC"},
  "source": "patent US20140271469A1",
  "about": "(Stanford University, published 2014)",
  "key": {"[1]": {"molecular_target": "T1, Recombinant human integrin αvβ6 (human, UniProt P06756 31-992; P18564 22-707)", "T1 construct": "Bought soluble heterodimer; also called alpha-v-beta-6; avb6", "experiment": "flow cytometry, 10 nM integrin αvβ6, relative to R02"}, "[2]": {"molecular_target": "T2, Native integrin αvβ6 on cells (BxPC-3, A431) (human) (UniProt P06756+P18564)", "experiment": "cell uptake assay with radiolabeled peptide (FIG. 5)"}, "[3]": {"molecular_target": "T2, Native integrin αvβ6 on cells (BxPC-3, A431) (human)", "experiment": "cell uptake assay, A431 and BxPC-3 cells (FIG. 5)"}, "[4]": {"molecular_target": "T1, Recombinant human integrin αvβ6", "experiment": "protein capture on neutravidin wells coated with biotinylated peptide, 10 nM integrin (FIG. 2A)"}, "[5]": {"molecular_target": "T2, Native integrin αvβ6 on cells (BxPC-3, A431) (human)", "experiment": "cell capture on peptide-coated wells, crystal violet (FIG. 2C)"}, "[6]": {"molecular_target": "Recombinant human integrin αvβ6 (human) (UniProt P06756)", "experiment": "plate competition against immobilised biotinylated A20 (FIG. 2B)"}, "[7]": {"molecular_target": "Recombinant human integrin αvβ6 (human) (UniProt P06756)", "experiment": "flow cytometry, 10 nM integrin αvβ6, relative to R02"}},
  "note": "No constants are given. Whether binding was seen depends on the method and setting. Some binding calls cover weakened binding; strength is not graded here.",
  "data": [
    {"binder": "GCRSLARTDLDHLRGRCEEDSDCLAECICEENGFCG", "note": "[E02]", "values": [
      {"measurement": "binding", "setting": "[1]", "result": "binds"}
    ]},
    {"binder": "GCRSLARTDLDHLRGRCEEDSDCLAECICEENGFCG (DOTA conjugated through the N-terminus amine, radiolabeled with 64Cu)", "note": "[64Cu-DOTA-E02]", "values": [
      {"measurement": "binding", "setting": "[2]", "result": "binds"},
      {"measurement": "binding", "setting": "[3]", "result": "binds"}
    ]},
    {"binder": "GCRSLARTDLDHLRGRCSSDSDCSAECICLENGFCG", "note": "[S12]", "values": [
      {"measurement": "binding", "setting": "[1]", "result": "binds"}
    ]},
    {"binder": "GCRSLARTDLDHLRDRCSSDSDCLAECICLENGFCG (PEO4-Biotin coupled to the peptide (its sole primary amine is the N-terminus))", "note": "[Biotinylated S02]", "values": [
      {"measurement": "binding", "setting": "[4]", "result": "binds"},
      {"measurement": "binding", "setting": "[5]", "result": "binds"}
    ]},
    {"binder": "GCRSLARTDLDHLRDRCSSDSDCLAECICLENGFCG (DOTA conjugated through the N-terminus amine, radiolabeled with 64Cu)", "note": "[64Cu-DOTA-S02]", "values": [
      {"measurement": "binding", "setting": "[2]", "result": "binds"},
      {"measurement": "binding", "setting": "[3]", "result": "binds"}
    ]},
    {"binder": "GCRSLARTDLDHLRDRCSSDSDCLAECICLENGFCG", "note": "[S02]", "values": [
      {"measurement": "binding", "setting": "[6]", "result": "binds"},
      {"measurement": "binding", "setting": "[7]", "result": "binds"}
    ]},
    {"binder": "GCRSLARTDLDHLRGRCSSDSDCLAECICSENGFCG", "note": "[S22]", "values": [
      {"measurement": "binding", "setting": "[1]", "result": "binds"}
    ]},
    {"binder": "GCRSLARTDLDHLRGRCSSDSDCSAECICSENGFCG", "note": "[S32]", "values": [
      {"measurement": "binding", "setting": "[1]", "result": "binds"}
    ]}
  ]
}
